In PMC10912661:
No constants are given. Whether binding was seen depends on the method and setting.

Protein sequences, listed by entry. Tags and fused reporters are not part of them. Residues count along the entry.
UniProt Q99YA0, residues 169-294: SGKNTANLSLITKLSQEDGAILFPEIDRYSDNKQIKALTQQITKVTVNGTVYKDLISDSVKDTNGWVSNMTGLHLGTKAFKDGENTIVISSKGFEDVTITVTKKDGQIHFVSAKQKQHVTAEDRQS

Target: hemoglobin-interacting domain 2 (HID2) of Shr, residues 169-294, wild type (Streptococcus pyogenes) (UniProt Q99YA0)
Test: SEC; Hiload 26/60 Superdex-75, 20 mM Tris, 200 mM NaCl pH 8.0; last step of the purification of HID2; both purified

With “hemoglobin-interacting domain 2 (HID2) of Shr, residues 169-294, wild type (from UniProt Q99YA0 169-294) (domain or fragment)” the binding was “no binding”.
